{
  "source": "patent US20090197811A1",
  "about": "(University of Southern California, priority 2007, published 2009)",
  "assay": "peptide made by a vendor",
  "conditions": "whole synthesis",
  "data": [
    {"substance": "Ac-DWFKAFYDKVAEKFKEAF-NH2", "values": [
      {"measurement": "purity (crude or final not stated)", "value": 80, "unit": "%"}
    ]}
  ]
}
